Results are given in words; binding and its absence hold for the method and conditions named. In cells and extracts the contact can be indirect. These calls come from enrichment with a bait or labelling near it, and not all partners need be listed. A no says only that the protein was not detected with the bait.
Tests used:
[1] = molecular target: NS5 protein of tick-borne encephalitis virus (TBEV), Hypr strain, from infected cells (tick-borne encephalitis virus (Hypr strain)) (UniProt Q01299); experiment: affinity purification with mass spectrometry
[2] = molecular target: Strep-tagged NS5 protein of Powassan virus (POWV), strain LB (Powassan virus (strain LB)) (UniProt Q04538); experiment: affinity purification with mass spectrometry

The chains behind the UniProt entries cited, without tags or fusion partners. Residues count along the entry.
UniProt Q01299, residues 2512-3414: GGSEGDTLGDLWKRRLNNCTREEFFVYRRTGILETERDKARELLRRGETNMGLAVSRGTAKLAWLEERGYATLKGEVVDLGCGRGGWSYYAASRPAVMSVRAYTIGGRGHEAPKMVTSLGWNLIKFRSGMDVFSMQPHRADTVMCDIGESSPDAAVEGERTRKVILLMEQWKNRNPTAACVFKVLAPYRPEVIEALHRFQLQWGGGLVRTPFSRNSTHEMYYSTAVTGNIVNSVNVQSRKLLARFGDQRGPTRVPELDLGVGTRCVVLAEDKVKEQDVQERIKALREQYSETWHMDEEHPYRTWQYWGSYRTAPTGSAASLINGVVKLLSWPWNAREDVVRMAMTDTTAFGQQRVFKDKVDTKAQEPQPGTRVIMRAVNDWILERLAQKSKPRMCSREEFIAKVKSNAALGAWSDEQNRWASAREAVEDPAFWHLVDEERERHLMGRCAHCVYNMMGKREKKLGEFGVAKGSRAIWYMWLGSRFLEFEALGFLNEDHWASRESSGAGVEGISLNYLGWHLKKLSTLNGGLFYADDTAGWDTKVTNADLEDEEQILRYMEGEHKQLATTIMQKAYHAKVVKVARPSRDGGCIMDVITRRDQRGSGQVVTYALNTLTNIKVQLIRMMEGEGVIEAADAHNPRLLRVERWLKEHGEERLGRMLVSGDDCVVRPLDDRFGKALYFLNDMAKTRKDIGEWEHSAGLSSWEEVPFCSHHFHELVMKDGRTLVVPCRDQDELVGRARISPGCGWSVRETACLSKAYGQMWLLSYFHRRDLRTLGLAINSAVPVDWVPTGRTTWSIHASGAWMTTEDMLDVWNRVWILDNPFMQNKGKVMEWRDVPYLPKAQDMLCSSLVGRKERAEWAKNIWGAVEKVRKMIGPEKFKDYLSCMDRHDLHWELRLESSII
UniProt Q04538, residues 2513-3415: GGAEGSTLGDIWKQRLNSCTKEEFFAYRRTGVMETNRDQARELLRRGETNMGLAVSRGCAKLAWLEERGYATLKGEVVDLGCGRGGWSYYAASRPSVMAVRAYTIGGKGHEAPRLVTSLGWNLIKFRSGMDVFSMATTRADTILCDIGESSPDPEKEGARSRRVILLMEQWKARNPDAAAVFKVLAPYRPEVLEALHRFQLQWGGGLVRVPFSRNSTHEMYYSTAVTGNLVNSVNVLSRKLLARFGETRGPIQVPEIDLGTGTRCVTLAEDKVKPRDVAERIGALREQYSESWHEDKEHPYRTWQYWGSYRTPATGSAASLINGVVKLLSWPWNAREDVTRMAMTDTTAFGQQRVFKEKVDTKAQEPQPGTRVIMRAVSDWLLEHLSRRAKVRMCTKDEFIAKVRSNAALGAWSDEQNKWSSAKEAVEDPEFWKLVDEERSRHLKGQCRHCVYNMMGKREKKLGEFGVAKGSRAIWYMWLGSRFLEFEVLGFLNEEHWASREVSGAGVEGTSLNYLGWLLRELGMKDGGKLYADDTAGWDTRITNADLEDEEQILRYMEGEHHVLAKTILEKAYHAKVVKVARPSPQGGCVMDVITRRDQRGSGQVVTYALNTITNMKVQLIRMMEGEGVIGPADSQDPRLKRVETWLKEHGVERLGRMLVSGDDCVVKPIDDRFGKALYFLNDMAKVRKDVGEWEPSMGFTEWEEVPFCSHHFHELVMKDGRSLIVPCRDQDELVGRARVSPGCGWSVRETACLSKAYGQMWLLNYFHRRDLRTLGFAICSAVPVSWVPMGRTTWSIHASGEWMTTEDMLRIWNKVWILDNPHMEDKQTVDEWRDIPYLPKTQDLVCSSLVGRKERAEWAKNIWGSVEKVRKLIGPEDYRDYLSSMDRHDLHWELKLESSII
UniProt O14980: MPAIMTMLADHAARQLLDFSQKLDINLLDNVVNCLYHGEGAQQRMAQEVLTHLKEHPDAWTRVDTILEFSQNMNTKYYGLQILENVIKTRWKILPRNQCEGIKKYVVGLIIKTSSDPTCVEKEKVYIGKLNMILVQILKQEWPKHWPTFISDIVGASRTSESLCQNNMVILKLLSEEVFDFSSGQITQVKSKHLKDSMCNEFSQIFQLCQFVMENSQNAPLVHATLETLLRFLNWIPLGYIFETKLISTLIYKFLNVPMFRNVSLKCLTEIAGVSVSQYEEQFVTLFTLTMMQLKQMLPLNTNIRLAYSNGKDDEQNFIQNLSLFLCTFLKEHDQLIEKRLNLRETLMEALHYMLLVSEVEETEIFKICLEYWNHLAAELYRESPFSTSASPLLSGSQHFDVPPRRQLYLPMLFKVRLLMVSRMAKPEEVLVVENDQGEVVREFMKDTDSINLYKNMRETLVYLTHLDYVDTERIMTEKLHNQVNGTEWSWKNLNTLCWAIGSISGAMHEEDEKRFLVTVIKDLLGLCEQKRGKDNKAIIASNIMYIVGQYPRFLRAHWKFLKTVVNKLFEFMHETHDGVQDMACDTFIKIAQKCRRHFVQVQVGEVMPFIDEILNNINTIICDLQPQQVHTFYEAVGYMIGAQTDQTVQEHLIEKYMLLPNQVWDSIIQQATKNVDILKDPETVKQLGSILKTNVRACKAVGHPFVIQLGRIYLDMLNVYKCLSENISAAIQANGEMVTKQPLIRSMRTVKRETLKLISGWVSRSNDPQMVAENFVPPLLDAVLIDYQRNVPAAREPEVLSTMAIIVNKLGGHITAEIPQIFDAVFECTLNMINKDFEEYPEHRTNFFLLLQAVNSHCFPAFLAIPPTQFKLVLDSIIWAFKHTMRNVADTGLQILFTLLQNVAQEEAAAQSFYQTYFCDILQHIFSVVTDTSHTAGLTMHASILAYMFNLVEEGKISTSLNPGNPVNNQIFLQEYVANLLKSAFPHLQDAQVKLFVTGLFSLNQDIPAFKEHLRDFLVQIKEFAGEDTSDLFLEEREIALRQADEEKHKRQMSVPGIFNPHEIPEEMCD
UniProt O95071: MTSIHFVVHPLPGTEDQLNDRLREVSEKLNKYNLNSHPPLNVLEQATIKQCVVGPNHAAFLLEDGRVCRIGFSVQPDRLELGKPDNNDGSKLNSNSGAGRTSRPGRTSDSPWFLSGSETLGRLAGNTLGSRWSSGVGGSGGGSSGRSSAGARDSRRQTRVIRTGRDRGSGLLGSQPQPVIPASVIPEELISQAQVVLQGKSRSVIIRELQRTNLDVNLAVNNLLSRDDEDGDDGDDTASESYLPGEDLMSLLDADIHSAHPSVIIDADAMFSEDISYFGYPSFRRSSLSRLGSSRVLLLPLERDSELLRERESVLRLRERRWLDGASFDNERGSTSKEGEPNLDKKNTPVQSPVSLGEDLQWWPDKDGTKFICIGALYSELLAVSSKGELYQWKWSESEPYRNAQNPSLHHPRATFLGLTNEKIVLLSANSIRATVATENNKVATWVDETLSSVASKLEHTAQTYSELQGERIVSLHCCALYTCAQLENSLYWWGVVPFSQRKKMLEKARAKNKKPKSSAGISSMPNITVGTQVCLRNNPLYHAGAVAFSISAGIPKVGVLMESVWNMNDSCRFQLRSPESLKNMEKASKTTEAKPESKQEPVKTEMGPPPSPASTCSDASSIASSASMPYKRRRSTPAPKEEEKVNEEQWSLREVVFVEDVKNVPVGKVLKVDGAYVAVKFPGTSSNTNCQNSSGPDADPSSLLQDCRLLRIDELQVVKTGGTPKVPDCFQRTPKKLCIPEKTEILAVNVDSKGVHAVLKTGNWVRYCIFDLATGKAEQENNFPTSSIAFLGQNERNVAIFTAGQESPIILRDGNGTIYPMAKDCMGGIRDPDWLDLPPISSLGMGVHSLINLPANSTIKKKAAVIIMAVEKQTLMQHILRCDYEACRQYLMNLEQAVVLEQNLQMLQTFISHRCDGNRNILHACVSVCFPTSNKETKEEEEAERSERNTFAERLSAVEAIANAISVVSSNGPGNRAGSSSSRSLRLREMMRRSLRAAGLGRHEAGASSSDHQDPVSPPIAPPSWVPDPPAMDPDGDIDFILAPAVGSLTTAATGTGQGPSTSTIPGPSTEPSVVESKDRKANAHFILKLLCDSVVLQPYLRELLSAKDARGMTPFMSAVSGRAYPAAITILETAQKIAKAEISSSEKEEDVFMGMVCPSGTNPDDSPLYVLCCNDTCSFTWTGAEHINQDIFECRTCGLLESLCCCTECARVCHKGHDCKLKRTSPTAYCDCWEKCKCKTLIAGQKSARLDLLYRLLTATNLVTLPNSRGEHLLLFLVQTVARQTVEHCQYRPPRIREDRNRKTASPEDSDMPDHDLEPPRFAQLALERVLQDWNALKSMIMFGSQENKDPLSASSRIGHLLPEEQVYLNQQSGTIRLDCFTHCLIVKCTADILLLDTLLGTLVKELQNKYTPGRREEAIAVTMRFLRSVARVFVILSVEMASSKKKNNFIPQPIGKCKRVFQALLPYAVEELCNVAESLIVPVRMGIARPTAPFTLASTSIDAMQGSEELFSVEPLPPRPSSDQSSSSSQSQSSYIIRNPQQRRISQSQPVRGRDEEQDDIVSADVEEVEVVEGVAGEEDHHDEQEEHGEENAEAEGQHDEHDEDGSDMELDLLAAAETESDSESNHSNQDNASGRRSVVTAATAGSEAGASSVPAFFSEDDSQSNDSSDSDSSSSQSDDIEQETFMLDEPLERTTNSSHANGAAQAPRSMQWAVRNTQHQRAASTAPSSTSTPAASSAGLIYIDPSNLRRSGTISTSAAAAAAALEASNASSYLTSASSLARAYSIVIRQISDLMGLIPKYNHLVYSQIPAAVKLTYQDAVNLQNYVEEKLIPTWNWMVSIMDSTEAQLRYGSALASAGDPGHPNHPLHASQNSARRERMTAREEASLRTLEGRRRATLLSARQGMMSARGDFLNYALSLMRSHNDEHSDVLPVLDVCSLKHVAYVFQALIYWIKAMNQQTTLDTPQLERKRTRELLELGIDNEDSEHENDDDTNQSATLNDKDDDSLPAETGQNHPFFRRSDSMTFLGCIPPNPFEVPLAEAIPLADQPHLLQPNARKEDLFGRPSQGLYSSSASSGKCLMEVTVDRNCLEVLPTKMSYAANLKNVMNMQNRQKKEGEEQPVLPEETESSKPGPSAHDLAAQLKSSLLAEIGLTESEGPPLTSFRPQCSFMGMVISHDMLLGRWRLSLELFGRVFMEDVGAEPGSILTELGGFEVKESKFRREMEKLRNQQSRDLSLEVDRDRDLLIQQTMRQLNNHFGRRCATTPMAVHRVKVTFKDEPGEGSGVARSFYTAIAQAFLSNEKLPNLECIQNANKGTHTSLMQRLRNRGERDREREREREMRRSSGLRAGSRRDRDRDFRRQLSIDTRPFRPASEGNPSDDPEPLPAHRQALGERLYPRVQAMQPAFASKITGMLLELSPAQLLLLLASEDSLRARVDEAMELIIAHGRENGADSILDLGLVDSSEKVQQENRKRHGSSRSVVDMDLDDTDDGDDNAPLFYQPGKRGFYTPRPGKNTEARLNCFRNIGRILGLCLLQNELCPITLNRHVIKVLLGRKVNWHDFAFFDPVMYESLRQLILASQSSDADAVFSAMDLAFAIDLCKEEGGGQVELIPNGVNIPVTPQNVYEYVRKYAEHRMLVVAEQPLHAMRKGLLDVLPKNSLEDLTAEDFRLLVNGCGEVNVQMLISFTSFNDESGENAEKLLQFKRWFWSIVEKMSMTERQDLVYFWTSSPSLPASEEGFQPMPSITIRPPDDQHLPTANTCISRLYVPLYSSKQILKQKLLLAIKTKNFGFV
UniProt Q14974: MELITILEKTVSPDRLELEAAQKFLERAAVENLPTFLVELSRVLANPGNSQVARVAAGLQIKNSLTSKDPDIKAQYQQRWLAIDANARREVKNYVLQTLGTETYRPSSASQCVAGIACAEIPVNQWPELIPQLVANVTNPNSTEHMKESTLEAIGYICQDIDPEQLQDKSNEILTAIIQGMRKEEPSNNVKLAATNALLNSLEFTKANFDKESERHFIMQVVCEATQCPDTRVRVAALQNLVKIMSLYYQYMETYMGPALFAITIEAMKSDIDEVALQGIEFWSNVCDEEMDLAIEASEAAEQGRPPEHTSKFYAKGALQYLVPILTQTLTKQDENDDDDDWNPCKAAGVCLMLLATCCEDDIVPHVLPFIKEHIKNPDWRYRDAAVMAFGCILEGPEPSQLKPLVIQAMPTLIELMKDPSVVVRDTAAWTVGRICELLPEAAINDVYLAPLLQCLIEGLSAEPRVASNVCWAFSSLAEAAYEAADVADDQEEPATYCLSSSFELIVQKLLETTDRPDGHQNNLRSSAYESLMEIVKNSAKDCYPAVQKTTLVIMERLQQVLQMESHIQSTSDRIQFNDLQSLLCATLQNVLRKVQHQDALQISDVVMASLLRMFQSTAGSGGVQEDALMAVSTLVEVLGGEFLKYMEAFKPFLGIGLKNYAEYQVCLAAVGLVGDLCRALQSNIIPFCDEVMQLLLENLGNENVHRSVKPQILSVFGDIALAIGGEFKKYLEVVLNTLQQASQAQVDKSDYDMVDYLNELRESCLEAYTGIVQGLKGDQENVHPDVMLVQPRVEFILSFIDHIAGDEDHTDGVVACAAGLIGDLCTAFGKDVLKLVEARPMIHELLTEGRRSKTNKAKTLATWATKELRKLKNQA

ATRX (from UniProt P46100 1-2492) was tested, and the binding [1] was “binds” and the binding [2] was “binds”.

“CRM1 (also called Exportin-1 [XPO1]) (from UniProt O14980 1-1071)” was tested, and the binding [1] was “binds”.

In the case of GEMIN4 (from UniProt P57678 1-1058), the binding [1] is reported as “binds”.

With HAX1 (from UniProt O00165 1-279) the binding [1] was “binds” and the binding [2] was “no binding”.

PHAX (from UniProt Q9H814 1-394) was tested, and the binding [1] was “binds” and the binding [2] was “no binding”.

In the case of SMN1 (from UniProt Q16637 1-294), the binding [1] is reported as “binds”.

With TYK2 (from UniProt P29597 1-1187) the binding [1] was “binds” and the binding [2] was “binds”.

For UBR5 (from UniProt O95071 1-2799), the binding [1] was “binds”.

With β-importin1 (from UniProt Q14974 1-876) the binding [1] was “no binding”.

B1: SMARCAD1 (protein, UniProt Q9H4L7 1-1026)
chain: MNLFNLDRFRFEKRNKIEEAPEATPQPSQPGPSSPISLSAEEENAEGEVSRANTPDSDITEKTEDSSVPETPDNERKASISYFKNQRGIQYIDLSSDSEDVVSPNCSNTVQEKTFNKDTVIIVSEPSEDEESQGLPTMARRNDDISELEDLSELEDLKDAKLQTLKELFPQRSDNDLLKLIESTSTMDGAIAAALLMFGDAGGGPRKRKLSSSSEPYEEDEFNDDQSIKKTRLDHGEESNESAESSSNWEKQESIVLKLQKEFPNFDKQELREVLKEHEWMYTEALESLKVFAEDQDMQYVSQSEVPNGKEVSSRSQNYPKNATKTKLKQKFSMKAQNGFNKKRKKNVFNPKRVVEDSEYDSGSDVGSSLDEDYSSGEEVMEDGYKGKILHFLQDASIGELTLIPQCSQKKAQKITELRPFNSWEALFTKMSKTNGLSEDLIWHCKTLIQERDVVIRLMNKCEDISNKLTKQVTMLTGNGGGWNIEQPSILNQSLSLKPYQKVGLNWLALVHKHGLNGILADEMGLGKTIQAIAFLAYLYQEGNNGPHLIVVPASTIDNWLREVNLWCPTLKVLCYYGSQEERKQIRFNIHSRYEDYNVIVTTYNCAISSSDDRSLFRRLKLNYAIFDEGHMLKNMGSIRYQHLMTINANNRLLLTGTPVQNNLLELMSLLNFVMPHMFSSSTSEIRRMFSSKTKSADEQSIYEKERIAHAKQIIKPFILRRVKEEVLKQLPPKKDRIELCAMSEKQEQLYLGLFNRLKKSINNLEKNTEMCNVMMQLRKMANHPLLHRQYYTAEKLKEMSQLMLKEPTHCEANPDLIFEDMEVMTDFELHVLCKQYRHINNFQLDMDLILDSGKFRVLGCILSELKQKGDRVVLFSQFTMMLDILEVLLKHHQHRYLRLDGKTQISERIHLIDEFNTDMDIFVFLLSTKAGGLGINLTSANVVILHDIDCNPYNDKQAEDRCHRVGQTKEVLVIKLISQGTIEESMLKINQQKLKLEQDMTTVDEGDEGSMPADIATLLKTSMGL
With B1 the binding [1] was “binds”.

B2: NKTR (protein, UniProt P30414 1-1462)
chain: MGAQDRPQCHFDIEINREPVGRIMFQLFSDICPKTCKNFLCLCSGEKGLGKTTGKKLCYKGSTFHRVVKNFMIQGGDFSEGNGKGGESIYGGYFKDENFILKHDRAFLLSMANRGKHTNGSQFFITTKPAPHLDGVHVVFGLVISGFEVIEQIENLKTDAASRPYADVRVIDCGVLATKSIKDVFEKKRKKPTHSEGSDSSSNSSSSSESSSESELEHERSRRRKHKRRPKVKRSKKRRKEASSSEEPRNKHAMNPKGHSERSDTNEKRSVDSSAKREKPVVRPEEIPPVPENRFLLRRDMPVVTAEPEPKIPDVAPIVSDQKPSVSKSGRKIKGRGTIRYHTPPRSRSCSESDDDDSSETPPHWKEEMQRLRAYRPPSGEKWSKGDKLSDPCSSRWDERSLSQRSRSWSYNGYYSDLSTARHSGHHKKRRKEKKVKHKKKGKKQKHCRRHKQTKKRRILIPSDIESSKSSTRRMKSSCDRERSSRSSSLSSHHSSKRDWSKSDKDVQSSLTHSSRDSYRSKSHSQSYSRGSSRSRTASKSSSHSRSRSKSRSSSKSGHRKRASKSPRKTASQLSENKPVKTEPLRATMAQNENVVVQPVVAENIPVIPLSDSPPPSRWKPGQKPWKPSYERIQEMKAKTTHLLPIQSTYSLANIKETGSSSSYHKREKNSESDQSTYSKYSDRSSESSPRSRSRSSRSRSYSRSYTRSRSLASSHSRSRSPSSRSHSRNKYSDHSQCSRSSSYTSISSDDGRRAKRRLRSSGKKNSVSHKKHSSSSEKTLHSKYVKGRDRSSCVRKYSESRSSLDYSSDSEQSSVQATQSAQEKEKQGQMERTHNKQEKNRGEEKSKSERECPHSKKRTLKENLSDHLRNGSKPKRKNYAGSKWDSESNSERDVTKNSKNDSHPSSDKEEGEATSDSESEVSEIHIKVKPTTKSSTNTSLPDDNGAWKSSKQRTSTSDSEGSCSNSENNRGKPQKHKHGSKENLKREHTKKVKEKLKGKKDKKHKAPKRKQAFHWQPPLEFGEEEEEEIDDKQVTQESKEKKVSENNETIKDNILKTEKSSEEDLSGKHDTVTVSSDLDQFTKDDSKLSISPTALNTEENVACLQNIQHVEESVPNGVEDVLQTDDNMEICTPDRSSPAKVEETSPLGNARLDTPDINIVLKQDMATEHPQAEVVKQESSMSESKVLGEVGKQDSSSASLASAGESTGKKEVAEKSQINLIDKKWKPLQGVGNLAAPNAATSSAVEVKVLTTVPEMKPQGLRIEIKSKNKVRPGSLFDEVRKTARLNRRPRNQESSSDEQTPSRDDDSQSRSPSRSRSKSETKSRHRTRSVSYSHSRSRSRSSTSSYRSRSYSRSRSRGWYSRGRTRSRSSSYRSYKSHRTSSRSRSRSSSYDPHSRSRSYTYDSYYSRSRSRSRSQRSDSYHRGRSYNRRSRSCRSYGSDSESDRSYSHHRSPSESSRYS
In the case of B2, the binding [1] is reported as “binds”.

B3: SART3 (protein, UniProt Q15020 1-963)
chain: MATAAETSASEPEAESKAGPKADGEEDEVKAARTRRKVLSRAVAAATYKTMGPAWDQQEEGVSESDGDEYAMASSAESSPGEYEWEYDEEEEKNQLEIERLEEQLSINVYDYNCHVDLIRLLRLEGELTKVRMARQKMSEIFPLTEELWLEWLHDEISMAQDGLDREHVYDLFEKAVKDYICPNIWLEYGQYSVGGIGQKGGLEKVRSVFERALSSVGLHMTKGLALWEAYREFESAIVEAARLEKVHSLFRRQLAIPLYDMEATFAEYEEWSEDPIPESVIQNYNKALQQLEKYKPYEEALLQAEAPRLAEYQAYIDFEMKIGDPARIQLIFERALVENCLVPDLWIRYSQYLDRQLKVKDLVLSVHNRAIRNCPWTVALWSRYLLAMERHGVDHQVISVTFEKALNAGFIQATDYVEIWQAYLDYLRRRVDFKQDSSKELEELRAAFTRALEYLKQEVEERFNESGDPSCVIMQNWARIEARLCNNMQKARELWDSIMTRGNAKYANMWLEYYNLERAHGDTQHCRKALHRAVQCTSDYPEHVCEVLLTMERTEGSLEDWDIAVQKTETRLARVNEQRMKAAEKEAALVQQEEEKAEQRKRARAEKKALKKKKKIRGPEKRGADEDDEKEWGDDEEEQPSKRRRVENSIPAAGETQNVEVAAGPAGKCAAVDVEPPSKQKEKAASLKRDMPKVLHDSSKDSITVFVSNLPYSMQEPDTKLRPLFEACGEVVQIRPIFSNRGDFRGYCYVEFKEEKSALQALEMDRKSVEGRPMFVSPCVDKSKNPDFKVFRYSTSLEKHKLFISGLPFSCTKEELEEICKAHGTVKDLRLVTNRAGKPKGLAYVEYENESQASQAVMKMDGMTIKENIIKVAISNPPQRKVPEKPETRKAPGGPMLLPQTYGARGKGRTQLSLLPRALQRPSAAAPQAENGPAAAPAVAAPAATEAPKMSNADFAKLFLRK
B3 was tested, and the binding [1] was “binds”.

B4: ZNF687 (protein, UniProt Q8N1G0 1-1237)
chain: MGDMKTPDFDDLLAAFDIPDIDANEAIHSGPEENEGPGGPGKPEPGVGSESEDTAAASAGDGPGVPAQASDHGLPPPDISVVSVIVKNTVCPEQSEALAGGSAGDGAQAAGVTKEGPVGPHRMQNGFGSPEPSLPGTPHSPAPPSGGTWKEKGMEGKTPLDLFAHFGPEPGDHSDPLPPSAPSPTREGALTPPPFPSSFELAQENGPGMQPPVSSPPLGALKQESCSPHHPQVLAQQGSGSSPKATDIPASASPPPVAGVPFFKQSPGHQSPLASPKVPVCQPLKEEDDDEGPVDKSSPGSPQSPSSGAEAADEDSNDSPASSSSRPLKVRIKTIKTSCGNITRTVTQVPSDPDPPAPLAEGAFLAEASLLKLSPATPTSEGPKVVSVQLGDGTRLKGTVLPVATIQNASTAMLMAASVARKAVVLPGGTATSPKMIAKNVLGLVPQALPKADGRAGLGTGGQKVNGASVVMVQPSKTATGPSTGGGTVISRTQSSLVEAFNKILNSKNLLPAYRPNLSPPAEAGLALPPTGYRCLECGDAFSLEKSLARHYDRRSMRIEVTCNHCARRLVFFNKCSLLLHAREHKDKGLVMQCSHLVMRPVALDQMVGQPDITPLLPVAVPPVSGPLALPALGKGEGAITSSAITTVAAEAPVLPLSTEPPAAPATSAYTCFRCLECKEQCRDKAGMAAHFQQLGPPAPGATSNVCPTCPMMLPNRCSFSAHQRMHKNRPPHVCPECGGNFLQANFQTHLREACLHVSRRVGYRCPSCSVVFGGVNSIKSHIQTSHCEVFHKCPICPMAFKSGPSAHAHLYSQHPSFQTQQAKLIYKCAMCDTVFTHKPLLSSHFDQHLLPQRVSVFKCPSCPLLFAQKRTMLEHLKNTHQSGRLEETAGKGAGGALLTPKTEPEELAVSQGGAAPATEESSSSSEEEEVPSSPEPPRPAKRPRRELGSKGLKGGGGGPGGWTCGLCHSWFPERDEYVAHMKKEHGKSVKKFPCRLCERSFCSAPSLRRHVRVNHEGIKRVYPCRYCTEGKRTFSSRLILEKHVQVRHGLQLGAQSPGRGTTLARGSSARAQGPGRKRRQSSDSCSEEPDSTTPPAKSPRGGPGSGGHGPLRYRSSSSTEQSLMMGLRVEDGAQQCLDCGLCFASPGSLSRHRFISHKKRRGVGKASALGLGDGEEEAPPSRSDPDGGDSPLPASGGPLTCKVCGKSCDSPLNLKTHFRTHGMAFIRARQGAVGDN
With B4 the binding [1] was “binds”.

Reference: paper PMC13595970
